Reference: patent publication US7960508B2, “Peptide having cytotoxicity inhibitory activity and method of screening these peptide having cytotoxicity inhibitory activity” (Juridical Foundation The Chemo-Sero-Therapeutic Research …, priority 2001, dated 2011)
Part of at least one peptide drawing is inferred or uncertain, most often the ends. Non-standard residues stand in square brackets, D forms with d. Residues, ends and D or L forms follow the SMILES beside them. Sec = N[C@@H](C[SeH])C(=O)O

Tested on: Dami cells
Assay: Screening of efficacious peptides: cytotoxicity-inhibitory activity (Example 3)
Type: cell-based
Conditions: cytotoxicity-inhibitory activity per 1 mM selenocysteine
Method: The cells were washed twice with 50% PBS/SA/0.03% HSA (manufactured by SIGMA) and suspended in the same medium at 3×10^4 cells/ml.
For assessment, it was examined to what folds of dilution of tested samples the cells could survive in view of the fact that on Day 4 the cells in wells without the activity were put to death whereas the cells in wells with the activity survived.
Cytotoxicity-inhibitory activity was determined for each of the peptides obtained above as described in Reference Example 1 and in accordance with Reference Example 2. As a result, selenocysteine-containing peptides, Peptide 3 through Peptide 16, were confirmed to have the cytotoxicity-inhibitory activity.

CC[C@H](C)[C@H](NC(=O)[C@H](CC(C)C)NC(=O)[C@H](Cc1c[nH]cn1)NC(=O)[C@H](CCCNC(=N)N)NC(=O)[C@H](CO)NC(=O)[C@H](Cc1c[nH]cn1)NC(=O)[C@H](CO)NC(=O)[C@H](CO)NC(=O)[C@H](C[SeH])NC(=O)[C@H](CO)NC(=O)[C@@H](N)CCCNC(=N)N)C(=O)N[C@@H](Cc1ccccc1)C(=O)N[C@@H](CCC(=O)O)C(=O)N[C@@H](CCCCN)C(=O)O [Peptide 6] (H-RS[Sec]SSHSRHLIFEK-OH)
Activity/1 mM Sec: 395,000
